Values quoted from earlier work in patent US20230372302A1 (priority 2019, published 2023).

Settings: human, in vivo; cited from earlier work

Structure (SMILES): COc1cc2nc(N3CCN(C(=O)C4COc5ccccc5O4)CC3)nc(N)c2cc1OC (stereo not shown) [DOXAZOSIN, 1-(4-amino-6,7-dimethoxy-2-quinazolinyl)-4-(1,4benzodioxan-2-ylcarbonyl) piperazine methanesulfonate]
- dizziness: 15-19%
